Results from PubChem BioAssay AID2685 (National Center for Advancing Translational Sciences (NCATS), 2010).
The list shows a part of the results. The main result of the screen is listed elsewhere. These columns were measured beside it and carry no call. Compounds called inactive in the main read-out are mostly missing here. The note in brackets gives the kind of curve behind each potency; many fits are weak.

Assay: qHTS Assay for Lipid Storage Modulators in Drosophila S3 Cells;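 for cell number change: cells counted by Cell Tracker Red CMTPX staining in the red channel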
Settings: BODIPY lipid droplet fluorescence, 18-24 h; for cell number change: measured here: cell count max response, cells fed with added oleic acid
How it was run: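 Drosophila S3 cells loaded with oleic acid (400 uM, as added) and compounds at several concentrations; lipid droplets imaged by 488-nm laser-scanning cytometry, 500–530 nm intensity and object ratio to cell channel. Percent activity normalized to 20 uM Triacsin C.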

[1] = measured here: lipid fluorescence (Fed channel) AC50, cells fed with added oleic acid
[2] = measured here: cell number channel AC50, cells fed with added oleic acid

Row | SMILES | cell number change [%] | AC50 [1] | AC50 [2]
1 | Cc1cccn2c(=O)c3cc(C(=O)NC4CCCC4)sc3nc12 | -0.88 | 1.46 µM [falling, full curve, poor fit] | 
2 | COc1ccc(C(=O)NCC(=O)OCC(=O)c2ccc(Cl)cc2)cc1OC | -11.1 | 0.282 µM [falling, partial curve, poor fit] | 0.112 µM [falling, full curve, poor fit]
3 | Cc1cc(=O)[nH]c(N/N=C/c2ccccn2)n1 | 0.55 |  | 
4 | CCc1ccc(NC(=O)CCc2ccc(CC)o2)cc1 | -7.92 |  | 
5 | O=C(COC(=O)CNC(=O)c1ccc(Cl)cc1)Nc1ccc2c(c1)OCCO2 | -1.8 | 29.1 µM [falling, single point] | 
6 | COc1ccccc1OCC(=O)NCCCn1ccnc1 |  |  | 0.651 µM [falling, single point]
7 | Cc1ccccc1-c1nc(CN2CCC(C(=O)NCCCN3CCCC3)CC2)c(C)o1 |  |  | 4.11 µM [falling, single point]
8 | Cc1ccc(C)c(-n2c(SCC(=O)N3CCCC3)nnc2-c2ccccn2)c1 | 23.2 | 3.66 µM [rising, single point] | 0.461 µM [rising, full curve, poor fit]
9 | C/C(=N\NC(=S)NCc1ccccc1)c1ccccc1 | 35.2 | 0.517 µM [rising, partial curve] | 1.3 µM [rising, partial curve]
10 | COC(=O)c1cc(NS(=O)(=O)c2ccc(N3CCCCCC3)c([N+](=O)[O-])c2)cc(C(=O)OC)c1 | 148 | 0.58 µM [rising, single point] | 
11 | CCN(CC(N)=O)S(=O)(=O)c1ccc(F)cc1 | -34.2 |  | 35.5 µM [falling, single point]
12 | CCOc1ccc(OCCC(=O)OCC(=O)NC2CCCC2)cc1 | -11.5 | 5.8 µM [falling, single point] | 
13 | COc1cccc(NC(=O)CCCCCn2nnc3ccccc3c2=O)c1 | -0.709 | 6.51 µM [falling, single point] | 
14 | Cc1cc(C(=O)O)ccc1-n1c(C)cc(C=C2C(=O)c3ccccc3C2=O)c1C | -10.4 |  | 
15 | O=C(NCCN1CCN(c2ccccc2Cl)CC1)Nc1ccccc1 | -8.21 | 18.4 µM [rising, partial curve] | 
16 | C=CCn1c(SCC(=O)Nc2cc(C)c(Cl)cc2OC)nnc1-c1ccco1 | -4.55 | 0.116 µM [rising, full curve, poor fit] | 
17 | CC1CC(C)CN(CCOCCSc2ccccc2)C1 (centres undefined) | 168 | 11.6 µM [rising, partial curve] | 9.2 µM [rising, partial curve]
18 | O=C(NCCc1cccnc1)c1cc(COc2ccc(F)cc2F)on1 | 19.1 | 4.61 µM [falling, single point] | 
19 | Cc1ccc(N(CC(=O)Nc2ccccc2-c2ccccc2)S(=O)(=O)c2ccccc2)c(C)c1 | 36 | 23.1 µM [falling, single point] | 29.1 µM [rising, single point]

Of the compounds above, three have an aryl thioether with sulfur outside any ring:
Row | SMILES | cell number change [%] | AC50 [1] | AC50 [2]
8 | Cc1ccc(C)c(-n2c(SCC(=O)N3CCCC3)nnc2-c2ccccn2)c1 | 23.2 | 3.66 µM [rising, single point] | 0.461 µM [rising, full curve, poor fit]
16 | C=CCn1c(SCC(=O)Nc2cc(C)c(Cl)cc2OC)nnc1-c1ccco1 | -4.55 | 0.116 µM [rising, full curve, poor fit] | 
17 | CC1CC(C)CN(CCOCCSc2ccccc2)C1 (centres undefined) | 168 | 11.6 µM [rising, partial curve] | 9.2 µM [rising, partial curve]

Continued.

Row | SMILES | cell number change [%] | AC50 [1] | AC50 [2]
20 | COc1ccc(CC(=O)NNS(=O)(=O)c2cccc([N+](=O)[O-])c2)cc1OC | 3.04 | 0.0082 µM [rising, full curve, poor fit] | 
21 | CCC(C)(C)NC(=O)C(c1ccc(C)cc1)N(CC1CCCO1)C(=O)c1csnn1 (centres undefined) | 16.2 |  | 
22 | Cc1ccc2[nH]c(C)c(/C=C/c3cc[n+](C)cc3)c2c1 | -83.8 | 0.82 µM [falling, full curve] | 1.84 µM [falling, partial curve]
23 | Cc1ccc(/C=N/NC(=O)c2c[nH]c3ccccc23)o1 |  | 0.58 µM [rising, partial curve, poor fit] | 3.26 µM [rising, partial curve]
24 | CC(=O)Nc1ccc(NC(=O)Cc2ccc(S(=O)(=O)N3CCCCC3)s2)cc1 | 3.85 | 23.1 µM [rising, single point] | 
25 | O=C(NC(=S)Nc1cccc([N+](=O)[O-])c1)C1CCCCC1 | -6.21 | 0.517 µM [rising, single point] | 0.366 µM [rising, single point]
26 | Cc1cc(Nc2ccccc2)c2c([N+](=O)[O-])ccc(C)c2n1 | -13.1 | 29.1 µM [falling, single point] | 
27 | CC(=O)Nc1ccc(C(=O)NN2C(=O)NC3(CCCCC3)C2=O)cc1 | -15.7 | 0.58 µM [falling, full curve] | 
28 | COC(=O)c1c(C#N)c(N)nc2c1CCC2 |  | 6.51 µM [falling, single point] | 
29 | O=C(N/N=C/c1cc(Cl)ccc1O)c1cccnc1 | -28.8 | 3.66 µM [falling, partial curve] | 
30 | Cc1ccc(C(=O)Nc2cc(C(C)C)c(O)c(C(C)C)c2)cc1 | 19.2 | 0.00411 µM [rising, full curve, poor fit] | 
31 | Cc1c(CC(=O)NCC(C)C)c(=O)oc2cc3c(cc12)CCC(C)(C)O3 | -72.5 | 20.6 µM [falling, partial curve] | 23.1 µM [falling, partial curve]
32 | CCOC(=O)C1=C(O)C(=O)N(c2ccccc2)C1c1cccc([N+](=O)[O-])c1 (centres undefined) | -7.47 |  | 
33 | COc1ccccc1Oc1ccc(-c2cnc3ccccc3n2)cc1[N+](=O)[O-] | 124 | 29.1 µM [rising, partial curve] | 29.1 µM [rising, single point]
34 | COc1ccccc1NS(=O)(=O)c1cccc(C(=O)N2CCN(C(=O)c3ccco3)CC2)c1 | -15.9 |  | 
35 | CCCCNC(=O)C(=O)NCc1ccncc1 | -15.6 | 0.116 µM [falling, full curve, poor fit] | 
36 | O=C(Cn1c(-c2ccco2)nc2ccccc21)N1CCCCC1 |  | 2.59 µM [falling, partial curve, poor fit] | 
37 | CC(C)(C)c1ccc(OCC(O)CS(=O)(=O)c2ccccn2)cc1 (centres undefined) | -31.2 | 18.4 µM [falling, partial curve] | 2.31 µM [falling, single point]
